Consider six sequences from patent publication US20170335314.

For at least one entry, the source does not settle the construct or the ends of the probe. No signal at the amounts used counts as a negative. The comparison behind a weaker result is the experiment's own reference, which may not be listed here.

For this series, the system named is biotinylated anti-BRD7 Fab fragment (murine IgG1 isotype + bFab) (Mus musculus). Description: pull-down. Particulars: purified native protein, protein details: biotinylated, ThermoFisher.

In the case of “CGACGCGGGCGCAAAGACATCTGGACACGCCACTAAGTGGAGGTGATCTGTACTTCATTTATGAGATCGCGGCGAGGAGAAGGAGACTTAGAGGC [aptamer 228-5'-Ext1]”, the binding result (little affected by appended tag, PBSM, single-stranded DNA, variant of aptamer 228 (10AptR1)) is given as “binds”.

Regarding “GCAAAGACATCTGGACACGCCACTTATAGTCTACGTGAAGCACTGCGCTGGAACAGCCTAAAAAAGGAGAAGGAGACTTAGAGGC [aptamer 136 (unselected control R-aptamer)]”, the binding result (unselected control, supernatant not depleted, PBSM, single-stranded DNA) is reported as “no binding”.

Regarding “CATCTCCACCTCCATAACCCACGGACGGGCGTCTAGAGAAGTAGGCTGAAATATCGTGGCGAGAACGAGCTGTGTCCTGAAGAAA [aptamer 229 (10AptL3)]”, the binding result (streptavidin bead pulldown, PBSM, single-stranded DNA) is on record as “binds”.

With “CATCTCCACCTCCATAACCCACGGACGGGCGTCTAGAGAAGTAGGCTGAAATATCGTGGCGAGAACGAGCTGTGTCCTGAAGAAAGCAAAGACATCTGGACACGCCACTAAGTGGAGGTGATCTGTACTTCATTTATGAGATCGCGGCGAGGAGAAGGAGACTTAGAGGC [binary aptamer 229-228 (ligated, 170 nt)]”, the binding result (pre-ligated binary, splint-ligated form and purified splint-free form both bind, single-stranded DNA) was “binds”.

As to “CATCTCCACCTCCATAACCCACGGACGGGCGTCTAGAGAAGTAGGCTGAAATATCGTGGCGAGAACGAGCTGTGTCCTGAAGAAACCGGCTGCGC [aptamer 229-3'-Ext1]”, for the setting “binding reduced somewhat versus 229, PBSM, single-stranded DNA, variant of aptamer 229 (10AptL3)”, the binding result is “binds more weakly”.

With “CATCTCCACCTCCATAACCCACGGACGGGCGTCTAGAGAAGTAGGCTGAAATATCGTGGCGAGAACGAGCTGTGTCCTGAAGAAACCGGCTGCGC / CGACGCGGGCGCAAAGACATCTGGACACGCCACTAAGTGGAGGTGATCTGTACTTCATTTATGAGATCGCGGCGAGGAGAAGGAGACTTAGAGGC [stem-loop linked binary 229-3'-Ext1/228-5'-Ext1]”, the binding result (templated click product on bFab-bound binary, folded or branched DNA) is listed as “binds”.
